This is one part of the list.
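Further: competitive profiling in live THP-1 cells: cysteine peptides tagged with an iodoacetamide desthiobiotin (IA-DTB) probe, intensity after compound treatment relative to DMSO-treated cells.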

Compound in the assay: Cc1cc(ccc1-c1ccccc1)C(=O)N1CCCN(CC1)C(=O)CCl [compound 10]
Nature of the assay: probe-labelled cysteine peptide fold change vs DMSO (competition) (log2 fold change); higher = less target engagement (more negative = stronger competition). Particulars: 50 µM; THP-1; incubation time: 4 h.
Consider “PRDX1_Q06830_71_KLNCQVIGASVDSHFCHLAWVNTPK (UniProt Q06830)”, for which the “probe-labelled cysteine peptide fold change” value is -0.0715.

Turning to “PPOX_P50336_410_EMPSHCLVHLHK (UniProt P50336)”, the “probe-labelled cysteine peptide fold change” value was -0.359.

For the target “PREX1_Q8TCU6_572_EEAVALGVGLCNNGFMHHVLEK (UniProt Q8TCU6)”, the “probe-labelled cysteine peptide fold change” value is -0.00475.

As to “PPP4C_P60510_193_KQEVPHDGPMCDLLWSDPEDTTGWGVSPR (UniProt P60510)”, the “probe-labelled cysteine peptide fold change” value was -0.279.

Regarding “PPP6R1_Q9UPN7_216_DENQHSNASQSLCDIIR (UniProt Q9UPN7)”, the “probe-labelled cysteine peptide fold change” value was determined as 0.182.

Regarding “PPP1CA_P62136_202_IMRPTDVPDQGLLCDLLWSDPDKDVQGWGENDR (UniProt P62136)”, the “probe-labelled cysteine peptide fold change” value is -0.728.

As to “PRDX1_Q06830_83_KLNCQVIGASVDSHFCHLAWVNTPK (UniProt Q06830)”, the “probe-labelled cysteine peptide fold change” value is -0.191.

As to “PPP4R2_Q9NY27_296_QHCTEEDEEEDEEEEEESFMTSR (UniProt Q9NY27)”, the “probe-labelled cysteine peptide fold change” value was -0.304.

As for “PREP_P48147_343_DVLEWIACVR (UniProt P48147)”, the “probe-labelled cysteine peptide fold change” value is 0.394.

With “PREB_Q9HCU5_378_CQLHLLPSRR (UniProt Q9HCU5)”, the “probe-labelled cysteine peptide fold change” value turned out to be 0.335.

Regarding “PPT1_P50897_160_CPGESSHICDFIR (UniProt P50897)”, the “probe-labelled cysteine peptide fold change” value is -0.185.

Consider “PPP4R1_Q8TF05_566_SDLQDELDINELPNCK (UniProt Q8TF05)”, for which the “probe-labelled cysteine peptide fold change” value is -0.171.

For the target “PPP6R3_Q5H9R7_216_HSNASQSLCEIVR (UniProt Q5H9R7)”, the “probe-labelled cysteine peptide fold change” value is -0.00422.

Take “PPP5C_P53041_208_KCAYQILVQVK (UniProt P53041)”: the “probe-labelled cysteine peptide fold change” value is -0.402.

Take “PPP6R3_Q5H9R7_844_CAAPRPPSSSPEQR (UniProt Q5H9R7)”: the “probe-labelled cysteine peptide fold change” value is -0.199.

“PPP1R12C_Q9BZL4_109_AVLDSTNADGISALHQACIDENLEVVR (UniProt Q9BZL4)”: the “probe-labelled cysteine peptide fold change” value was -0.0717.

On to “PPP6R3_Q5H9R7_82_YKYPNISCELLTSDVSQMNDR (UniProt Q5H9R7)”, for which the “probe-labelled cysteine peptide fold change” value is -0.137.

Take “PRDX1_Q06830_71+83_LNCQVIGASVDSHFCHLAWVNTPK (UniProt Q06830)”: the “probe-labelled cysteine peptide fold change” value was -0.0725.

On to “PPP4C_P60510_235_GAGYLFGSDVVAQFNAANDIDMICR (UniProt P60510)”, for which the “probe-labelled cysteine peptide fold change” value was 0.0638.

For “PPP1R27_Q86WC6_105_DEAGWTPLHIACSDGYPDIAR (UniProt Q86WC6)”, the “probe-labelled cysteine peptide fold change” value is 0.349.

Consider “PPP2R1B_P30154_389_ENTIEHLLPLFLAQLKDECPDVR (UniProt P30154)”, for which the “probe-labelled cysteine peptide fold change” value is -0.525.

As to “PREX1_Q8TCU6_836_LSLCEDSPMVTLTVDNVHLEHGVVYEYVSTAGVR (UniProt Q8TCU6)”, the “probe-labelled cysteine peptide fold change” value came out at 0.185.

“PPT1_P50897_46_ALQHLDPPAPLPLVIWHGMGDSCCNPLSMGAIK (UniProt P50897)”: the “probe-labelled cysteine peptide fold change” value is -0.262.

Take “PPP2R5E_Q16537_106_GCLTEQTYPEVVR (UniProt Q16537)”: the “probe-labelled cysteine peptide fold change” value came out at 0.0376.

As to “PPP1CC_P36873_202_PTDVPDQGLLCDLLWSDPDK (UniProt P36873)”, the “probe-labelled cysteine peptide fold change” value worked out at 0.286.

In the case of “PPP6R2_O75170_37_EHVTLQELMDEDDILQECK (UniProt O75170)”, the “probe-labelled cysteine peptide fold change” value came out at 0.121.

Regarding “PREX1_Q8TCU6_1173_DSYSECNSNR (UniProt Q8TCU6)”, the “probe-labelled cysteine peptide fold change” value came to 1.39.

For the target “PRDX4_Q13162_148_SINTEVVACSVDSQFTHLAWINTPR (UniProt Q13162)”, the “probe-labelled cysteine peptide fold change” value came out at 0.311.

“PPP5C_P53041_11_AMAEGERTECAEPPRDEPPADGALK (UniProt P53041)”: the “probe-labelled cysteine peptide fold change” value was -0.246.

As for “PPP1R27_Q86WC6_79_KVSLATIHPSGLAALHEAVLSGNLECVK (UniProt Q86WC6)”, the “probe-labelled cysteine peptide fold change” value worked out at 0.00964.

As to “PPP6R2_O75170_87_FKYPNTACELLTCDVPQISDR (UniProt O75170)”, the “probe-labelled cysteine peptide fold change” value was -0.285.

For “PPP6R1_Q9UPN7_326_LSCFHQLLLEPPKLEPLQMTWGMLAPPLGNTR (UniProt Q9UPN7)”, the “probe-labelled cysteine peptide fold change” value is 0.077.

“PPP4R1_Q8TF05_645_HCAYSLPGVALTLGR (UniProt Q8TF05)”: the “probe-labelled cysteine peptide fold change” value turned out to be 0.108.

Consider “PPME1_Q9Y570_238_QCEGITSPEGSK (UniProt Q9Y570)”, for which the “probe-labelled cysteine peptide fold change” value is -0.29.

In the case of “PRDX2_P32119_70_LGCEVLGVSVDSQFTHLAWINTPR (UniProt P32119)”, the “probe-labelled cysteine peptide fold change” value is 0.163.

Consider “PREX1_Q8TCU6_1221_LHGCLEHLFNQVDSINALLK (UniProt Q8TCU6)”, for which the “probe-labelled cysteine peptide fold change” value is 0.188.

The values above are taken from the supplement of paper PMC12067093, “Discovery and optimisation of a covalent ligand for TRIM25 and its application to targeted protein ubiquitination” (Chemical Science, 2025).
